According to the supplement of paper PMC10849652:
The list shows a part of the results.

Sequences of proteins named here, by UniProt entry; tags and fusion partners are left off. A change or cut given only in a name is not applied to a line headed by its entry.
UniProt P27708: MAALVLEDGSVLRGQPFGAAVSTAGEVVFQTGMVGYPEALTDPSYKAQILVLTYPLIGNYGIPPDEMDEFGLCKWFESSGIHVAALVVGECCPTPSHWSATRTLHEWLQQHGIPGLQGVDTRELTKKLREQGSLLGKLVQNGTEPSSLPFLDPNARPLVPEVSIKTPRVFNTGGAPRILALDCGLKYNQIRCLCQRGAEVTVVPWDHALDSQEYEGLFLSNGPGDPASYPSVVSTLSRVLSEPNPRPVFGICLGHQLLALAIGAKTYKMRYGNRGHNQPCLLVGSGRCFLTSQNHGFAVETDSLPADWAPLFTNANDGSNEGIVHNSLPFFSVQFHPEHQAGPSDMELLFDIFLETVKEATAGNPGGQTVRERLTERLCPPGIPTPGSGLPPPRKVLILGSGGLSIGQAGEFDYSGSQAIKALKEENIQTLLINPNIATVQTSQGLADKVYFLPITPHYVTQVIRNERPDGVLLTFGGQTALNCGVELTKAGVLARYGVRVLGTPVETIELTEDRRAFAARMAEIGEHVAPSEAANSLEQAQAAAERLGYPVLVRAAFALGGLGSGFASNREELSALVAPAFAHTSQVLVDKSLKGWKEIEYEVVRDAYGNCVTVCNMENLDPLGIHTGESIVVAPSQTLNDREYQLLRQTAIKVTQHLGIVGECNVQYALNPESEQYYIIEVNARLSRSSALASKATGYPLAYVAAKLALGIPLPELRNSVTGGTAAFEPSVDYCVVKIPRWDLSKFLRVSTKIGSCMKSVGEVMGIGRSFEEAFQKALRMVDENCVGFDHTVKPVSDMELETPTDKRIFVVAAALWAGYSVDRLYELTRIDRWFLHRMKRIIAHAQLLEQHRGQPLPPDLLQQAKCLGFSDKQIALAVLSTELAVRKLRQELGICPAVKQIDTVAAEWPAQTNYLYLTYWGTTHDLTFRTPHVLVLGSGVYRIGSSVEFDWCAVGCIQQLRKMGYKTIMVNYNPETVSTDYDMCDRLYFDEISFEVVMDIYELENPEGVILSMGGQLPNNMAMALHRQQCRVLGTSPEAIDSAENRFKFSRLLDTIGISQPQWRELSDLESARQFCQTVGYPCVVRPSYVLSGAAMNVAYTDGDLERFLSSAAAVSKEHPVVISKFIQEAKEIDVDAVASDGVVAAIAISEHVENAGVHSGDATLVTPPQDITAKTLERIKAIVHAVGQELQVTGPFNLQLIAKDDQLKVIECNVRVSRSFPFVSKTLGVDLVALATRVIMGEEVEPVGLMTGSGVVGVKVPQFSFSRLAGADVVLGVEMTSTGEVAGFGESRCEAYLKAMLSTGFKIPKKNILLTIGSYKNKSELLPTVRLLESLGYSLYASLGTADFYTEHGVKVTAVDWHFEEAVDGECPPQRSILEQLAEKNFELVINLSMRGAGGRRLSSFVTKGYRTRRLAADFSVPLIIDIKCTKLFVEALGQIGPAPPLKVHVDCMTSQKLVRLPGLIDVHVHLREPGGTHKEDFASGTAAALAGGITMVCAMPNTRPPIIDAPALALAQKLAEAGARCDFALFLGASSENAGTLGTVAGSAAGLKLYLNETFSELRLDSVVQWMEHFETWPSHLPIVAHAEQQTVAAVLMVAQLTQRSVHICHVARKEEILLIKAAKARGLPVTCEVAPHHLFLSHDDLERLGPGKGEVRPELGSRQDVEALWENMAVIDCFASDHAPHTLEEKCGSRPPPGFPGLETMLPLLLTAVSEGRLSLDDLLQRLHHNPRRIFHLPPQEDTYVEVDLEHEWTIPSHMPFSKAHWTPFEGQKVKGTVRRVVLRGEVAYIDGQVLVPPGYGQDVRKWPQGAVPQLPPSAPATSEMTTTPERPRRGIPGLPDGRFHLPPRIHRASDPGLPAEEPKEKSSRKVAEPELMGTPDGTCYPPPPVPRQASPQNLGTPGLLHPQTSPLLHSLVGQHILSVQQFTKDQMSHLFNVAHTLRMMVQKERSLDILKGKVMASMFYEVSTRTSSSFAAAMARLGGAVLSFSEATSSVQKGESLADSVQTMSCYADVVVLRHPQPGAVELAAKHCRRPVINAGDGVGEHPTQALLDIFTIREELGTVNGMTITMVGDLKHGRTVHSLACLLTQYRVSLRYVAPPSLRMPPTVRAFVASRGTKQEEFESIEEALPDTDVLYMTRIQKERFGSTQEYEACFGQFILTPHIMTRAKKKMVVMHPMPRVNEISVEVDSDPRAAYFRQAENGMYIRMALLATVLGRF
UniProt P0C0L4: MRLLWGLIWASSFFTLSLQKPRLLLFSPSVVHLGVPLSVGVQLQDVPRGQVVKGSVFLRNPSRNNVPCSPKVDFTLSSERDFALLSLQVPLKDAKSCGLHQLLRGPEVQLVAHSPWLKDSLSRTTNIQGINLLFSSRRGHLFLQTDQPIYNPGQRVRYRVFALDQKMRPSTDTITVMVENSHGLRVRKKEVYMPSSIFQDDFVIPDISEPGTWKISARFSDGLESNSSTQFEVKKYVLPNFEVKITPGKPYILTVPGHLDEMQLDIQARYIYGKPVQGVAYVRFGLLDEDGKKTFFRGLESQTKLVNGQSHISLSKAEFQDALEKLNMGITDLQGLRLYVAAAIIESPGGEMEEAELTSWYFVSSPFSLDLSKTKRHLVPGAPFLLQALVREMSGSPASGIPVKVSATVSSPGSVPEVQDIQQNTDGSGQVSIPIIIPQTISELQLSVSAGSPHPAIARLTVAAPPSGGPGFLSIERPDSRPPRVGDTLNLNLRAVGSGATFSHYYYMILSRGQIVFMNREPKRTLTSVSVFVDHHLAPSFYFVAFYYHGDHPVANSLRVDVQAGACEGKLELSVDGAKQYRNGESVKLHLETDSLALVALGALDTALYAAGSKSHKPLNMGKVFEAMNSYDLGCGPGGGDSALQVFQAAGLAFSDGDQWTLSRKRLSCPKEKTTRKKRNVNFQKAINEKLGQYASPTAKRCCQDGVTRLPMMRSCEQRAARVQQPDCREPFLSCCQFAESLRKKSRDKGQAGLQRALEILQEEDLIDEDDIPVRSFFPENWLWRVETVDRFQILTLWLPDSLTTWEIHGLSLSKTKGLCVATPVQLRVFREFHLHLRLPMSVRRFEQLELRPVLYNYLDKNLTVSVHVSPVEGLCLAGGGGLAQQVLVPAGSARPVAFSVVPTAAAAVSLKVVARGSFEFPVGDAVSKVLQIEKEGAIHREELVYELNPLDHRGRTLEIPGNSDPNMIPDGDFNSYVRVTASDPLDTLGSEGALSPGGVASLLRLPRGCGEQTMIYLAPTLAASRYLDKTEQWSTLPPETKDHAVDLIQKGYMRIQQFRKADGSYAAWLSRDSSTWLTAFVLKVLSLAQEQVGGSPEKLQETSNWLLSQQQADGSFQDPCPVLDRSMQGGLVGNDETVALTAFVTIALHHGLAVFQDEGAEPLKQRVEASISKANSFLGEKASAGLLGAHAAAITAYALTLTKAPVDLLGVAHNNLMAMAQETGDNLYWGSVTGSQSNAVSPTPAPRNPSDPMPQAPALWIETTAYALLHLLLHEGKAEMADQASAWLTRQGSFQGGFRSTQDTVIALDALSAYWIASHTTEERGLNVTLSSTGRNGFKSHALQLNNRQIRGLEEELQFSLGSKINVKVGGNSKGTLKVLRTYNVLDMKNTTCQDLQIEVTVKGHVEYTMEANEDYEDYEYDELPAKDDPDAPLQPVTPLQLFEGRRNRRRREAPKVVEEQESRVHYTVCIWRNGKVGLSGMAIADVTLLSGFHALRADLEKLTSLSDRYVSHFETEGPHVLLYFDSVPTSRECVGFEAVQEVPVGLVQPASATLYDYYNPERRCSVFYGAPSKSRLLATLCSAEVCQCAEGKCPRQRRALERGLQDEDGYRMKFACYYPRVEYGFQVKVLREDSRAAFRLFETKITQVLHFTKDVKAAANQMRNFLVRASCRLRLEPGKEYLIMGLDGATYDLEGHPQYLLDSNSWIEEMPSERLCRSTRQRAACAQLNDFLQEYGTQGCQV
UniProt Q05682: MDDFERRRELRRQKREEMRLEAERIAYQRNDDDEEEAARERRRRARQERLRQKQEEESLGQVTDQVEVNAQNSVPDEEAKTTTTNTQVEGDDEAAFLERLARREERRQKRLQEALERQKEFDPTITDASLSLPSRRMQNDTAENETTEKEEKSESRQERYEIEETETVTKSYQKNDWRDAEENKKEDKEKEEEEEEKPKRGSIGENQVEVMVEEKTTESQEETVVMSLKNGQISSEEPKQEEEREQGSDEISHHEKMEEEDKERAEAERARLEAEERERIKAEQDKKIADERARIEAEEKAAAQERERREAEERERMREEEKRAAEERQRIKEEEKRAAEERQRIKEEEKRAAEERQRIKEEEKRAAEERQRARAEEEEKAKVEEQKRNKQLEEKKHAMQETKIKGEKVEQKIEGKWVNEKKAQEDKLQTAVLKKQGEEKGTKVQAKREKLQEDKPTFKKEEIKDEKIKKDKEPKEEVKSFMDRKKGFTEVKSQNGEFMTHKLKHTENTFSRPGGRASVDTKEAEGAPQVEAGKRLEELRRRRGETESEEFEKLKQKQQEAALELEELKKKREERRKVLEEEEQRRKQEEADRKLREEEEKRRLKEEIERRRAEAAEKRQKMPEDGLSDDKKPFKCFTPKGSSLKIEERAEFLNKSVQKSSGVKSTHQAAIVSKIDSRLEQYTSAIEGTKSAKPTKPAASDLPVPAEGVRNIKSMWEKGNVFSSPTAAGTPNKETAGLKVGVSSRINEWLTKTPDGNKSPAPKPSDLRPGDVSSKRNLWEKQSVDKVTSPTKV
UniProt Q86VG3: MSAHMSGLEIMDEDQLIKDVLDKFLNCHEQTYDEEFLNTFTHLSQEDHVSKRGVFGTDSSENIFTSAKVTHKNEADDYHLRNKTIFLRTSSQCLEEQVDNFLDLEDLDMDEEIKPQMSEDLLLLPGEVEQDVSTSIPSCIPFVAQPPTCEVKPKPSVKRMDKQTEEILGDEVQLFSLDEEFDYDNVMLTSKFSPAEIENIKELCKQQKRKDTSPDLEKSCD
UniProt Q9BWL3: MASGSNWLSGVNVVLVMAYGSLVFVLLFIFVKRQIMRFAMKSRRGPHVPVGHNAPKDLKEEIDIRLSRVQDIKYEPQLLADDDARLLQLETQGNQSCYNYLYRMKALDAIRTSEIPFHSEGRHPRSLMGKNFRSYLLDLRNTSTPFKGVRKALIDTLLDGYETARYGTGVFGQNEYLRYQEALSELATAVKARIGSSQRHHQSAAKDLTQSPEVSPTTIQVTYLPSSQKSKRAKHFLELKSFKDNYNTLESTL
UniProt Q5BKX5: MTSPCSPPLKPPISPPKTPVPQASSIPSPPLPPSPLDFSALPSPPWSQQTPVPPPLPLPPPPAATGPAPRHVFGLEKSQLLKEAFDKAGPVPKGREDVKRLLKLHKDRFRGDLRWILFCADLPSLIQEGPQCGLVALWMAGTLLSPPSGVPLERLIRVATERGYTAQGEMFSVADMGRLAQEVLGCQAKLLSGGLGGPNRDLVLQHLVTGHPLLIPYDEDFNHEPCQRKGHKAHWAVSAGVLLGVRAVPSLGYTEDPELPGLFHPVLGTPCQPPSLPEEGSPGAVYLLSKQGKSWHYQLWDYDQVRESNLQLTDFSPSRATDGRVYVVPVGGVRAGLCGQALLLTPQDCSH
UniProt Q3KRA6: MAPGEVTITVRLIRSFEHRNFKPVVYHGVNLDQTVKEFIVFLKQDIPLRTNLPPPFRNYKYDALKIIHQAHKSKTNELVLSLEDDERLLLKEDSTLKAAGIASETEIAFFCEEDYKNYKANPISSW
UniProt P10643, whole entry, looked up: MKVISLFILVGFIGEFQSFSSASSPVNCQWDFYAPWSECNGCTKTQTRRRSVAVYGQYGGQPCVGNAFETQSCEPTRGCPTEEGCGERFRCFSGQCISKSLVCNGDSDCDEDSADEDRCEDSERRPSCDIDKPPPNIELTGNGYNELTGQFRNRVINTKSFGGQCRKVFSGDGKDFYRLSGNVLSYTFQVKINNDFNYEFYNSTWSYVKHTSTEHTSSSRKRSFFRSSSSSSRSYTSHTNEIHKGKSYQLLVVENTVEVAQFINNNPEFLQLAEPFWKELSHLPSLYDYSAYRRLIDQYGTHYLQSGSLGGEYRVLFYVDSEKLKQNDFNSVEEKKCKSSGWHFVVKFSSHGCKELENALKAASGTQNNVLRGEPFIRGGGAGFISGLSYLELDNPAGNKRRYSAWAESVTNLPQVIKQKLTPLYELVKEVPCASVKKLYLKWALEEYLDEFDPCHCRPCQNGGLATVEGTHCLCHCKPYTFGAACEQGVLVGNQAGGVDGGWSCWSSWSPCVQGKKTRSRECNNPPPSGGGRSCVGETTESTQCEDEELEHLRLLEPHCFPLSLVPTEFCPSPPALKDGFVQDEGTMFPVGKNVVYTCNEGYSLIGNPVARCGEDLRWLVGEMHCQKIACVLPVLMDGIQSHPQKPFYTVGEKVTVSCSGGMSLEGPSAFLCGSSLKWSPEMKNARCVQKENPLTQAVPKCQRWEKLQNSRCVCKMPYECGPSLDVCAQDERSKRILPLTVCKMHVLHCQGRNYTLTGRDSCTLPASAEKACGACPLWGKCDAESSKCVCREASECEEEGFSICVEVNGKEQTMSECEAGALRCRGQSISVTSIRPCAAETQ

Tests used:
Assay in all cases: log2 fold change, soluble protein after heating vs DMSO (PISA); higher = thermal stabilisation; K562 cells, 10 uM, 30 min; active = over 0.2 and 3.5 SD of the protein, either way, in both replicates (recomputed)
[1] = compound: NC(=O)Nc1cc(-c2cccc(F)c2)sc1C(=O)N[C@H]1CCCNC1
In short: (§1)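 For each measurement, 10 μM compound was applied for 30 min to K562 cells at 2×10^6 cells/mL. Aliquots were heated for 3 min across 48°C-58°C, pooled, and extracted in PBS with 0.5% NP-40 at 4°C; the supernatant after 21,000xg for 90 min was soluble protein. This was quantified by TMTpro 16plex LC-MS/MS with channel sums equalised, and thermal stability was reported relative to control samples from duplicates, on a log2 fold-change scale.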

[2] = compound: NC(=O)c1cnc(N[C@@H]2CCCC[C@@H]2N)nc1Nc1cccc(-n2nccn2)c1
In short: as §1

[3] = compound: NC1(c2ccc(-c3nc4ccn5c(=O)[nH]nc5c4cc3-c3ccccc3)cc2)CCC1
In short: as §1

[4] = compound: NCC(=O)Nc1ccc(-n2nc(C(F)(F)F)cc2-c2ccc3c(ccc4ccccc43)c2)cc1
In short: as §1

entinostat = compound: Nc1ccccc1NC(=O)c1ccc(CNC(=O)OCc2cccnc2)cc1 [entinostat]
In short: as §1

vorinostat = compound: O=C(CCCCCCC(=O)Nc1ccccc1)NO [vorinostat]
In short: as §1

citarinostat = compound: O=C(CCCCCCNC(=O)c1cnc(N(c2ccccc2)c2ccccc2Cl)nc1)NO [citarinostat]
In short: as §1

silmitasertib = compound: O=C(O)c1ccc2c(c1)nc(Nc1cccc(Cl)c1)c1ccncc12 [silmitasertib]
In short: as §1

[5] = compound: O=C1NC(=O)C(c2cnc3ccccn23)=C1c1cn2c3c(cc(F)cc13)CN(C(=O)N1CCCCC1)CC2
In short: as §1

[6] = compound: c1cc(OCCN2CCCCC2)cc(-c2n[nH]c3ccc(-c4nnc[nH]4)cc23)c1
In short: as §1

Target	log2 fold change [1]	log2 fold change [2]	log2 fold change [3]	log2 fold change [4]	log2 fold change (entinostat)	log2 fold change (vorinostat)	log2 fold change (citarinostat)	log2 fold change (silmitasertib)	log2 fold change [5]	log2 fold change [6]
CAPG (UniProt P40121)	inactive: 0.111	inactive: -0.01	inactive: -0.137	inactive: -0.014	inactive: 0.115	inactive: 0	inactive: 0.054	inactive: -0.005	inactive: -0.084	inactive: 0.026
CANX isoform 2 (UniProt P27824)	inactive: 0.089	inactive: -0.042	inactive: -0.013	inactive: 0.021	inactive: 0.058	inactive: -0.046	inactive: 0.012	inactive: 0.025	inactive: -0.014	inactive: -0.072
BUD13 (UniProt Q9BRD0)	inactive: 0.237	inactive: 0.104	inactive: 0.272	inactive: 0.037	inactive: -0.096	inactive: -0.035		inactive: 0	inactive: 0.104	
C9orf72 (UniProt Q96LT7)	inactive: 0.028	inactive: -0.041	inactive: -0.148	inactive: -0.009	inactive: -0.011	inactive: 0.232		inactive: -0.067	inactive: -0.011	
C11orf54 (UniProt Q9H0W9)	inactive: -0.06	inactive: -0.011	inactive: -0.008	inactive: 0.028	inactive: -0.032	inactive: 0.074	inactive: 0.095	inactive: -0.002	inactive: -0.045	inactive: 0
CALCOCO2 isoform 4 (UniProt Q13137)	inactive: -0.017	inactive: -0.075	active: -0.324	inactive: -0.185	inactive: -0.006	inactive: -0.006	inactive: 0.035	inactive: 0.047	inactive: 0.071	inactive: -0.034
CAPZA1 (UniProt P52907)	inactive: -0.006	inactive: -0.006	inactive: -0.025	inactive: 0.006	inactive: -0.005	inactive: 0.015	inactive: 0.012	inactive: -0.004	inactive: -0.026	inactive: -0.015
CA1 (UniProt P00915)	inactive: 0.01	inactive: 0.011	inactive: -0.013	inactive: 0.012	inactive: -0.011	active: 0.221	inactive: 0.074	inactive: 0.013	inactive: -0.014	inactive: -0.029
CAD (UniProt P27708)	inactive: 0.033	inactive: -0.014	inactive: -0.145	inactive: 0.008	inactive: -0.026	inactive: 0.088	inactive: 0.014	inactive: 0.003	inactive: 0.108	inactive: -0.141
CACYBP (UniProt Q9HB71)	inactive: -0.021	inactive: -0.079	inactive: -0.062	inactive: -0.051	inactive: 0.012	inactive: 0.004	inactive: -0.002	inactive: -0.036	inactive: -0.093	inactive: -0.004
C4A (UniProt P0C0L4)	inactive: -0.024	inactive: -0.016	inactive: -0.129	inactive: 0	inactive: 0.021	inactive: 0.265	inactive: -0.071	inactive: 0.059	inactive: 0.038	inactive: 0.146
CAP1 (UniProt Q01518)	inactive: -0.055	inactive: -0.014	inactive: -0.073	inactive: -0.039	inactive: 0.013	inactive: 0.011	inactive: 0.008	inactive: -0.008	inactive: -0.045	inactive: -0.012
CALD1 (UniProt Q05682)	inactive: 0.11				inactive: -0.01	inactive: 0.185			inactive: -0.085	
C11orf74 (UniProt Q86VG3)	inactive: 0.003		inactive: 0.015	inactive: -0.001	inactive: 0.011	inactive: -0.081	inactive: 0.121	inactive: 0.025	inactive: -0.085	inactive: -0.287
C1orf112 (UniProt Q9NSG2)	inactive: 0.004	inactive: 0.009		inactive: 0.001	inactive: -0.008	inactive: 0.039	inactive: 0.021			inactive: -0.065
BTD isoform 3 (UniProt P43251)	inactive: 0.021		inactive: -0.064	inactive: -0.059	inactive: -0.054		inactive: -0.052	inactive: 0.015	inactive: 0.105	inactive: 0.028
C1orf43 (UniProt Q9BWL3)	inactive: 0.031				inactive: 0.031					

Some of the entries above in another layout.

| Target | log2 fold change [1] | log2 fold change [2] | log2 fold change [3] | log2 fold change [4] | log2 fold change (entinostat) | log2 fold change (vorinostat) | log2 fold change (citarinostat) | log2 fold change (silmitasertib) | log2 fold change [5] | log2 fold change [6] |
| --- | --- | --- | --- | --- | --- | --- | --- | --- | --- | --- |
| C1orf112 (UniProt Q9NSG2) | inactive: 0.004 | inactive: 0.009 |  | inactive: 0.001 | inactive: -0.008 | inactive: 0.039 | inactive: 0.021 |  |  | inactive: -0.065 |
| BTD isoform 3 (UniProt P43251) | inactive: 0.021 |  | inactive: -0.064 | inactive: -0.059 | inactive: -0.054 |  | inactive: -0.052 | inactive: 0.015 | inactive: 0.105 | inactive: 0.028 |

Further results follow:

Target	log2 fold change [1]	log2 fold change [2]	log2 fold change [3]	log2 fold change [4]	log2 fold change (entinostat)	log2 fold change (vorinostat)	log2 fold change (citarinostat)	log2 fold change (silmitasertib)	log2 fold change [5]	log2 fold change [6]
C4BPA (UniProt P04003)	inactive: -0.19	inactive: 0.137	inactive: 0.242		inactive: -0.276	inactive: -0.092	inactive: 0.068	inactive: -0.098	inactive: 0.379	inactive: 0.216
C19orf54 (UniProt Q5BKX5)	inactive: 0.098	inactive: 0.004		inactive: 0.086	inactive: -0.111	inactive: -0.064	inactive: -0.09		inactive: -0.05	inactive: -0.121
C6orf136 isoform 4 (UniProt Q5SQH8)	inactive: -0.08	inactive: 0.035	inactive: 0.01		inactive: 0.072		inactive: 0.119	inactive: -0.444		inactive: -0.137
CARD9 (UniProt Q9H257)		inactive: 0.37								
C16orf70 (UniProt Q9BSU1)	inactive: 0.237	inactive: -0.106			inactive: 0.064		inactive: 0.001		inactive: 0.224	inactive: -0.024
C12orf73 (UniProt Q69YU5)	inactive: -0.032		inactive: 0.034	inactive: -0.058	inactive: 0.03	inactive: -0.329	inactive: 0.017	inactive: 0.018	inactive: -0.073	inactive: -0.003
C7orf26 (UniProt Q96N11)	inactive: -0.056			inactive: -0.026	inactive: 0				inactive: 0.163	
CAPNS1 (UniProt U3KPR7)		inactive: -0.163								
C2orf76 (UniProt Q3KRA6)	inactive: 0.023	inactive: -0.172	inactive: 0.06	inactive: 0.087	inactive: -0.027		inactive: 0.267	inactive: 0.112		inactive: -0.043
C12orf65 (UniProt Q9H3J6)	inactive: 0.081	inactive: 0.095	inactive: 0.181	inactive: -0.059	inactive: -0.155		inactive: -0.019	inactive: 0.047		inactive: -0.175
CALM1 (UniProt G3V361)	inactive: 0.351				inactive: -0.02					
C1orf159 isoform 4 (UniProt Q96HA4)	inactive: 0.205			inactive: -0.157	inactive: -0.002	inactive: -0.042				
CAD (UniProt H7BZB3)		inactive: 0.124								
C9orf85 isoform 1 (UniProt Q96MD7)	inactive: 0.029	inactive: -0.049	inactive: 0.081	inactive: 0.029	inactive: -0.03			inactive: 0.005	inactive: 0.157	
C7 (UniProt P10643)	inactive: 0.001	inactive: -0.519		inactive: 0.11	inactive: -0.284	inactive: 0.025	inactive: 0.066		inactive: 0.146	inactive: 0.263
C16orf87 (UniProt Q6PH81)	inactive: -0.194		inactive: -0.587	inactive: -0.018	inactive: -0.025		inactive: -0.05	inactive: -0.04	inactive: 0	inactive: 0.05
C5 (UniProt P01031)	inactive: -0.007			inactive: 0.08	inactive: 0.023	inactive: -0.178			inactive: 0.022	
